Laboratory results reported in publication PMC11523043.
These are yes or no findings as the source states them, for the method shown. In cells and extracts the contact can be indirect. Some entries that bind do so weakly or less than the wild type. Sequences can lack the tags named with a protein.

Tests used:
Assay in all cases: co-IP; lysates of cells (HEK293, HeLa or H1299) transfected with the Flag-tagged bait, anti-Flag (M2) agarose, 4°C for 4 hours, 50 mmol/L Tris-HCl pH 8.0, 0.5% Nonidet P-40, 150 mmol/L NaCl; endogenous partner detected by IB; for Flag-USP36 also in the presence of 100 μg/mL RNase A and 100 U/mL RNase T1
Flag-Nol9 (human) = target: T1, Flag-Nol9 (human) (UniProt Q5SY16)
T1 sequence: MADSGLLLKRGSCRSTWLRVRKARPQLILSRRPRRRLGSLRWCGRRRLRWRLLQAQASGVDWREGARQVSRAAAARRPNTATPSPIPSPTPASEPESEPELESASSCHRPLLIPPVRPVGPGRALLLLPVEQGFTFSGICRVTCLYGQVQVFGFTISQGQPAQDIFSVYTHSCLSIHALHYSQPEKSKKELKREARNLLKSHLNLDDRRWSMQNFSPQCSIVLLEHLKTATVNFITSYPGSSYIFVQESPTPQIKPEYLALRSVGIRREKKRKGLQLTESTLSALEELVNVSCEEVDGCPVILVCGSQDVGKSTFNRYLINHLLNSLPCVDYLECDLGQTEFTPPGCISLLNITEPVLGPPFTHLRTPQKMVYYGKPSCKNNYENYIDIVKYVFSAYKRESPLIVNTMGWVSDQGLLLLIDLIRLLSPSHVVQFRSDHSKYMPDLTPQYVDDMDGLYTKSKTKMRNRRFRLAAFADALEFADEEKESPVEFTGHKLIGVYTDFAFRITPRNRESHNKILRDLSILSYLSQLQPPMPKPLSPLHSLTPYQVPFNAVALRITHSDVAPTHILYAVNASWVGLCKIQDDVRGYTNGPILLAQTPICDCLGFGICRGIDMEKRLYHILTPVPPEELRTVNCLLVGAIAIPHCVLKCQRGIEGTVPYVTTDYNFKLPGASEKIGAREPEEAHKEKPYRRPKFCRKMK

Flag-Nol9^1-479 (human) = target: T2, Flag-Nol9^1-479 (human) (UniProt Q5SY16)
T2 sequence: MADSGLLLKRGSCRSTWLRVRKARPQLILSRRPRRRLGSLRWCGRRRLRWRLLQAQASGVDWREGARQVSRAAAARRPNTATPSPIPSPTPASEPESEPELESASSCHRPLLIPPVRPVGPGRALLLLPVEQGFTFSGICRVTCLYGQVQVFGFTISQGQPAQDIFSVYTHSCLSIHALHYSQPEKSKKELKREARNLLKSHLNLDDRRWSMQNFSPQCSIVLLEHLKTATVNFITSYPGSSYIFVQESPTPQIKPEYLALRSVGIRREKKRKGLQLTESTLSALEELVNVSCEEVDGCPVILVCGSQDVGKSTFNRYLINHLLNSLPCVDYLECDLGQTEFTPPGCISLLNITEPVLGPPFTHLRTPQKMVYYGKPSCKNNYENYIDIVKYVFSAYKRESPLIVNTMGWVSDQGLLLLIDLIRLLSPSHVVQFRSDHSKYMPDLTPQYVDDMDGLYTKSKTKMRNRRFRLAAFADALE

Flag-Las1L^1-613 = target: T3, Flag-Las1L^1-613 (UniProt Q9Y4W2)
T3 sequence: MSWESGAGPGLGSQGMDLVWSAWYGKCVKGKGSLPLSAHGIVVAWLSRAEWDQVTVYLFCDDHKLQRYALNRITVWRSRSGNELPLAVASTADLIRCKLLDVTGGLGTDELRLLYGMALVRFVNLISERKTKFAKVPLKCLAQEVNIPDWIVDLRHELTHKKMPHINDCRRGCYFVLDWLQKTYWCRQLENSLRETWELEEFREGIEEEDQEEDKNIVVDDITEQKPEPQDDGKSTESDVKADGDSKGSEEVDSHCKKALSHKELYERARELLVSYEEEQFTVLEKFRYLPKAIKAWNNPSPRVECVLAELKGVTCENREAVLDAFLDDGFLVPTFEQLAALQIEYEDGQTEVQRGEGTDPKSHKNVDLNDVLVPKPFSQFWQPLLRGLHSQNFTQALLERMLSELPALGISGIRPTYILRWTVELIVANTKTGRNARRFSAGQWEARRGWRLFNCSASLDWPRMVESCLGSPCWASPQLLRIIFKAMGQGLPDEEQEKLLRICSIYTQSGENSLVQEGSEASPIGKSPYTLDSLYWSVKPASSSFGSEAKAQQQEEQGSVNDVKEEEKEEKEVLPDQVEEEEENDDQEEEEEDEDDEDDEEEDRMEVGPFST

Flag-tagged Las1L = target: T4, Flag-tagged Las1L (UniProt Q9Y4W2)
T4 sequence: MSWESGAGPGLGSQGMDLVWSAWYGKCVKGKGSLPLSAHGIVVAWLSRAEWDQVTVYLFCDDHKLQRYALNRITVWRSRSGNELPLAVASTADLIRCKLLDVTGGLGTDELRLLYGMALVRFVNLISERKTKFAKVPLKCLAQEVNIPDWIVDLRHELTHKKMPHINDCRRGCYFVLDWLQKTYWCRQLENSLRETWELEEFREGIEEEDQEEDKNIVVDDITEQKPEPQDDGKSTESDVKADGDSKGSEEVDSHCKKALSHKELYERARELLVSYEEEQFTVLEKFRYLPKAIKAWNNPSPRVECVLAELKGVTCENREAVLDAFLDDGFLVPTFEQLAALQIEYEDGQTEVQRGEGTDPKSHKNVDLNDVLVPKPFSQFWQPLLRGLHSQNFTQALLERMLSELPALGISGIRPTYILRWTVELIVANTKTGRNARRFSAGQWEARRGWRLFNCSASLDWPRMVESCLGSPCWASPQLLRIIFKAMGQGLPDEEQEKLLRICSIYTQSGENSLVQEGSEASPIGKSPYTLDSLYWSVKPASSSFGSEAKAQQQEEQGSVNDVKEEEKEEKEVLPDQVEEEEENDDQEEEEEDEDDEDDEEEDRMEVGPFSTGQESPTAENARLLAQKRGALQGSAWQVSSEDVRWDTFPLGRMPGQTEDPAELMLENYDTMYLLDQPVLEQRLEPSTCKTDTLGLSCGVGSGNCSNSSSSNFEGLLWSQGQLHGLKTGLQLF

Measured: binding

B1: endogenous USP36 (enzyme, UniProt Q9P275 1-1123)
chain: MPIVDKLKEALKPGRKDSADDGELGKLLASSAKKVLLQKIEFEPASKSFSYQLEALKSKYVLLNPKTEGASRHKSGDDPPARRQGSEHTYESCGDGVPAPQKVLFPTERLSLRWERVFRVGAGLHNLGNTCFLNATIQCLTYTPPLANYLLSKEHARSCHQGSFCMLCVMQNHIVQAFANSGNAIKPVSFIRDLKKIARHFRFGNQEDAHEFLRYTIDAMQKACLNGCAKLDRQTQATTLVHQIFGGYLRSRVKCSVCKSVSDTYDPYLDVALEIRQAANIVRALELFVKADVLSGENAYMCAKCKKKVPASKRFTIHRTSNVLTLSLKRFANFSGGKITKDVGYPEFLNIRPYMSQNNGDPVMYGLYAVLVHSGYSCHAGHYYCYVKASNGQWYQMNDSLVHSSNVKVVLNQQAYVLFYLRIPGSKKSPEGLISRTGSSSLPGRPSVIPDHSKKNIGNGIISSPLTGKRQDSGTMKKPHTTEEIGVPISRNGSTLGLKSQNGCIPPKLPSGSPSPKLSQTPTHMPTILDDPGKKVKKPAPPQHFSPRTAQGLPGTSNSNSSRSGSQRQGSWDSRDVVLSTSPKLLATATANGHGLKGNDESAGLDRRGSSSSSPEHSASSDSTKAPQTPRSGAAHLCDSQETNCSTAGHSKTPPSGADSKTVKLKSPVLSNTTTEPASTMSPPPAKKLALSAKKASTLWRATGNDLRPPPPSPSSDLTHPMKTSHPVVASTWPVHRARAVSPAPQSSSRLQPPFSPHPTLLSSTPKPPGTSEPRSCSSISTALPQVNEDLVSLPHQLPEASEPPQSPSEKRKKTFVGEPQRLGSETRLPQHIREATAAPHGKRKRKKKKRPEDTAASALQEGQTQRQPGSPMYRREGQAQLPAVRRQEDGTQPQVNGQQVGCVTDGHHASSRKRRRKGAEGLGEEGGLHQDPLRHSCSPMGDGDPEAMEESPRKKKKKKRKQETQRAVEEDGHLKCPRSAKPQDAVVPESSSCAPSANGWCPGDRMGLSQAPPVSWNGERESDVVQELLKYSSDKAYGRKVLTWDGKMSAVSQDAIEDSRQARTETVVDDWDEEFDRGKEKKIKKFKREKRRNFNAFQKLQTRRNFWSVTHPAKAASLSYRR
binds: all assays above
